From publication PMC7724824
Results are given in words; binding and its absence hold for the method and conditions named. In cells and extracts the contact can be indirect. Some binding calls cover weakened binding; strength is not graded here.

The chains behind the UniProt entries cited, without tags or fusion partners.
UniProt P31749: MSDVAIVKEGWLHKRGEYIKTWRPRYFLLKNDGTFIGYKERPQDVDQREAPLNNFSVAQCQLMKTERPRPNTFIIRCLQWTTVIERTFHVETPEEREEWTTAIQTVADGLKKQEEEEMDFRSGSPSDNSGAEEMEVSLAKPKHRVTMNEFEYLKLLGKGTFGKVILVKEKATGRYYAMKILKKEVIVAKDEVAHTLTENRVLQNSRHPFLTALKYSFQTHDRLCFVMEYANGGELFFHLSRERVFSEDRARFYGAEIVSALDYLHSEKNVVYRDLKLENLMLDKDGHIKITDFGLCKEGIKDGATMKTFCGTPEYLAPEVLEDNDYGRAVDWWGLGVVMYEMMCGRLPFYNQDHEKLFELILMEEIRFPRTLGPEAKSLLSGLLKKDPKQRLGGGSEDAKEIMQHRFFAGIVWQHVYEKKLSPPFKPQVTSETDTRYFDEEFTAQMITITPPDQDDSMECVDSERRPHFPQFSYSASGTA

Target: Flag-AKT (wild type) (UniProt P31749)
Assay: co-IP; HEK293 cells (results and legend: HEK293T / 293 T) transfected with Flag-AKT (wild type) alone or plus HA-HDAC3 for 48 h; lysates immunoprecipitated with Flag, immunoblotted for acetylated-lysine, HA, p-AKT and Flag

binding: binds
Substance: HA-HDAC3 (histone deacetylase 3) (from UniProt O15379-1 1-428) (enzyme)
